In doi:10.1101/2025.02.20.639281 one finds binding data, which are given here for 1 molecule.

No constants are given. Whether binding was seen depends on the method and setting. Binding seen in cells or lysates may run through a third protein. Where a sequence is shown, tags or fusion partners need not be part of it.

This assay deals with T1, Lte1^mREM-ProA (S. cerevisiae) (UniProt P07866).
T1 sequence: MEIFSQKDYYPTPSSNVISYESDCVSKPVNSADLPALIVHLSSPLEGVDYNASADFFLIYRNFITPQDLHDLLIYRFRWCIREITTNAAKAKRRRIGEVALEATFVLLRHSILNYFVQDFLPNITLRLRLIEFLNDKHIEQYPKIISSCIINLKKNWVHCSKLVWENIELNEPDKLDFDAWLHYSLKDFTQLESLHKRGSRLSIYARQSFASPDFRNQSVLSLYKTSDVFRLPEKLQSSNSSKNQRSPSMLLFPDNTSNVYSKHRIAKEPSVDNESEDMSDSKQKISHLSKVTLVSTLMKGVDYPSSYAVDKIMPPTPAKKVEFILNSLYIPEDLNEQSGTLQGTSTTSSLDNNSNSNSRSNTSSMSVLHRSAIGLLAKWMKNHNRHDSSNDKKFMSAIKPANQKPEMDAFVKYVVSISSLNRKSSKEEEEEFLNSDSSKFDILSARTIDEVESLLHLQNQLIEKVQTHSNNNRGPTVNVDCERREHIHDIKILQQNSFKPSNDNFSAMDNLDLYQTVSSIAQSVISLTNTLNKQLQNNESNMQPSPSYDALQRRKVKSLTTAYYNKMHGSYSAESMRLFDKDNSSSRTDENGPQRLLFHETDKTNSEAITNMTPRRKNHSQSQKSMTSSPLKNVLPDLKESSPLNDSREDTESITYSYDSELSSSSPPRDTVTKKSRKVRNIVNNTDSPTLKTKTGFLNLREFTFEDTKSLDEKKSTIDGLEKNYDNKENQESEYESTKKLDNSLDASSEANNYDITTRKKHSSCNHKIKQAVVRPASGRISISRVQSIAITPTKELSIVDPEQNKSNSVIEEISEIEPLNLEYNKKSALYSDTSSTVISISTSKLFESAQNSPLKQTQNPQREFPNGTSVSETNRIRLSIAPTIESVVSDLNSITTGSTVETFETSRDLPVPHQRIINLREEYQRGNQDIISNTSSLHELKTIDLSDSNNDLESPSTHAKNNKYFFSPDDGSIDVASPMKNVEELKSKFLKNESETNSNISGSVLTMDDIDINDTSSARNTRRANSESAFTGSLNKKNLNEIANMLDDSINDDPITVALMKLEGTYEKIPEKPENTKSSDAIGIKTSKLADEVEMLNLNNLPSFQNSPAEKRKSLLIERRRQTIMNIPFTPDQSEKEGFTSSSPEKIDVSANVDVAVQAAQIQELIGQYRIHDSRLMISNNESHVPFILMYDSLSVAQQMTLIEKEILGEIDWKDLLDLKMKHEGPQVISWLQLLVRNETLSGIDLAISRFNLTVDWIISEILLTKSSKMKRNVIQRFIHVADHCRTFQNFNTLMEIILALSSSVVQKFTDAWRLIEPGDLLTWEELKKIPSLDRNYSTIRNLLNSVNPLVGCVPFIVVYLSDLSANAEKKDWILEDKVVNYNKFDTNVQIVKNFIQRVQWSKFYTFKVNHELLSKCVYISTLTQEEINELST
Description: co-IP.

B1: His6-Ras2 (protein, UniProt P01120 1-322)
chain: MPLNKSNIREYKLVVVGGGGVGKSALTIQLTQSHFVDEYDPTIEDSYRKQVVIDDEVSILDILDTAGQEEYSAMREQYMRNGEGFLLVYSITSKSSLDELMTYYQQILRVKDTDYVPIVVVGNKSDLENEKQVSYQDGLNMAKQMNAPFLETSAKQAINVEEAFYTLARLVRDEGGKYNKTLTENDNSKQTSQDTKGSGANSVPRNSGGHRKMSNAANGKNVNSSTTVVNARNASIESKTGLAGNQATNGKTQTDRTNIDNSTGQAGQANAQSANTVNNRVNNNSKAGQVSNAKQARKQQAAPGGNTSEASKSGSGGCCIIS
Consider B1, for which the binding result was “no binding”.
